Experimental data: PubChem BioAssay AID1159584 (Peter MacCallum Cancer Centre, 2016)

Purpose: 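Genes whose loss is lethal only together with E-cadherin loss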 (primary screen)
Cells: human MCF10A breast epithelial cells, parental and CDH1-null
Reagents: siRNA against human genes
Detection: 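ATP luminescence (CellTiter-Glo) viability per line relative to mean mock wells over all plates, and the ratio of CDH1-null to parental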
Direction: CDH1-null / parental viability ratio: higher = CDH1-null cells survive relatively better than parental; CDH1-null viability vs mock: higher = more viable CDH1-null cells; parental viability vs mock: higher = more viable parental cells
Here is a random part of about 18,000 reagents tested. No sequences are given here. Not stated in the record: the amount of reagent, the time to read-out.

| gene knocked down | CDH1-null / parental viability ratio | CDH1-null viability vs mock (fraction of mock) | parental viability vs mock (fraction of mock) |
| --- | --- | --- | --- |
| TIMM44 (GeneID 10469) | 1.03 | 0.64 | 0.62 |
| RAB6B (GeneID 51560) | 0.95 | 0.98 | 1.03 |
| KCNA2 (GeneID 3737) | 1.16 | 1 | 0.86 |
| GREM1 (GeneID 26585) | 1 | 0.77 | 0.77 |
| MRPS12 (GeneID 6183) | 1 | 0.46 | 0.46 |
| CALML6 (GeneID 163688) | 0.92 | 0.88 | 0.96 |
| VSTM2L (GeneID 128434) | 1.19 | 0.5 | 0.42 |
| NMUR1 (GeneID 10316) | 0.79 | 0.94 | 1.19 |
| BRCC3 (GeneID 79184) | 0.73 | 0.56 | 0.77 |
| FOLR2 (GeneID 2350) | 1 | 0.68 | 0.68 |
| TTL (GeneID 150465) | 1.17 | 1.08 | 0.92 |
| ATP5PB (GeneID 515) | 1.25 | 0.8 | 0.64 |
| BACH1 (GeneID 571) | 0.87 | 0.68 | 0.78 |
| RBMY1F (GeneID 159163) | 1.27 | 1.04 | 0.82 |
| SRPK2 (GeneID 6733) | 1.15 | 0.92 | 0.8 |
| WDTC1 (GeneID 23038) | 1.3 | 0.7 | 0.54 |
| HOMER1 (GeneID 9456) | 0.93 | 0.8 | 0.86 |
| SMC4 (GeneID 10051) | 1.19 | 0.81 | 0.68 |
| C2orf76 (GeneID 130355) | 1.03 | 0.75 | 0.73 |
| NCOR2 (GeneID 9612) | 1.06 | 0.88 | 0.83 |
| HCAR2 (GeneID 338442) | 0.68 | 0.72 | 1.06 |
| ERBB3 (GeneID 2065) | 0.65 | 0.57 | 0.88 |
| MED10 (GeneID 84246) | 1.49 | 0.7 | 0.47 |
| TFAM (GeneID 7019) | 1.17 | 1.24 | 1.06 |
| LAT (GeneID 27040) | 1.35 | 0.58 | 0.43 |
| VN1R2 (GeneID 317701) | 0.79 | 0.92 | 1.17 |
| CDH12 (GeneID 1010) | 1 | 0.64 | 0.64 |
| HORMAD1 (GeneID 84072) | 1.14 | 1 | 0.88 |
| DCUN1D1 (GeneID 54165) | 1.19 | 0.95 | 0.8 |

5 entries from above, ordered by “CDH1-null / parental viability ratio”, lowest first.
| gene knocked down | CDH1-null / parental viability ratio | CDH1-null viability vs mock (fraction of mock) | parental viability vs mock (fraction of mock) |
| --- | --- | --- | --- |
| ERBB3 (GeneID 2065) | 0.65 | 0.57 | 0.88 |
| HCAR2 (GeneID 338442) | 0.68 | 0.72 | 1.06 |
| TFAM (GeneID 7019) | 1.17 | 1.24 | 1.06 |
| LAT (GeneID 27040) | 1.35 | 0.58 | 0.43 |
| MED10 (GeneID 84246) | 1.49 | 0.7 | 0.47 |

Additional entries follow.
| gene knocked down | CDH1-null / parental viability ratio | CDH1-null viability vs mock (fraction of mock) | parental viability vs mock (fraction of mock) |
| --- | --- | --- | --- |
| AGFG1 (GeneID 3267) | 1.19 | 0.74 | 0.62 |
| TPK1 (GeneID 27010) | 1.02 | 0.82 | 0.8 |
| SLC46A3 (GeneID 283537) | 0.55 | 0.29 | 0.53 |
| KAZN (GeneID 23254) | 0.86 | 0.56 | 0.65 |
| DAZ4 (GeneID 57135) | 1.24 | 0.72 | 0.58 |
| ZBTB39 (GeneID 9880) | 1.07 | 0.88 | 0.82 |
| QARS1 (GeneID 5859) | 0.81 | 0.47 | 0.58 |
| CADM3 (GeneID 57863) | 0.88 | 0.99 | 1.12 |
| MPP1 (GeneID 4354) | 1.2 | 1.01 | 0.84 |
| RNF152 (GeneID 220441) | 1.04 | 1.04 | 1 |
| CLEC2D (GeneID 29121) | 0.94 | 0.98 | 1.04 |
| ADORA2A (GeneID 135) | 0.86 | 0.91 | 1.06 |
| DHX35 (GeneID 60625) | 1.24 | 0.94 | 0.76 |
| GUF1 (GeneID 60558) | 0.81 | 0.68 | 0.84 |
| SPEG (GeneID 10290) | 0.94 | 0.85 | 0.9 |
| IL6R (GeneID 3570) | 1.01 | 0.9 | 0.89 |
| CYP2R1 (GeneID 120227) | 0.74 | 0.78 | 1.06 |
